Results are given in words; binding and its absence hold for the method and conditions named. In cells and extracts the contact can be indirect. Some entries that bind do so weakly or less than the wild type.
How the values were obtained:
[1] = molecular target: FlagHA-tagged full-length Bid M148T (helix-6 mutant) (mouse) (UniProt P70444); assay: co-IP; 293T cells co-transfected with a FlagHA-Bid construct and an Mcl-1 construct; whole cell lysate, immunoprecipitation with anti-Flag M2 agarose beads, Western blot
[2] = molecular target: FlagHA-tagged full-length Bid (wild type) (mouse) (UniProt P70444); assay: as above

Sequences of proteins named here, by UniProt entry; tags and fusion partners are left off. A change or cut given only in a name is not applied to a line headed by its entry.
UniProt P70444: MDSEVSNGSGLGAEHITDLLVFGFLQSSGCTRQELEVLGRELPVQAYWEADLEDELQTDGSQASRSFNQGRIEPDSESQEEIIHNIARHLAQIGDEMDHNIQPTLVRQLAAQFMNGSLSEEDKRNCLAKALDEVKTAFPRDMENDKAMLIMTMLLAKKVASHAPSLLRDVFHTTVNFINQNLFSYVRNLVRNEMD
UniProt P97287: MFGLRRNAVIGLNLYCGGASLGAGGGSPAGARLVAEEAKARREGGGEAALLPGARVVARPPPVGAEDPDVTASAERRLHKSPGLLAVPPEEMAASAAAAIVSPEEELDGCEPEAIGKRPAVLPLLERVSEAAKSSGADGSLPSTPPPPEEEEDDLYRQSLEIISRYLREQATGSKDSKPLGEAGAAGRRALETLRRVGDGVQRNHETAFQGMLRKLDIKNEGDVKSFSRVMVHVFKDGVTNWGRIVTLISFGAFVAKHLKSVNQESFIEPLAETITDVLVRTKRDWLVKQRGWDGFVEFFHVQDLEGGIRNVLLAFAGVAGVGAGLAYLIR

binding [1]: binds | binding [2]: binds
Substance: Mcl-1 (WT) (from UniProt P97287 1-331)
